Measured data: PubChem BioAssay AID1224830 (NIAID, 2016)
Aim: 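Genes whose knock-down alters the TNF-alpha reporter response to LPS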 (primary screen). Cells: human THP-1 monocytic leukaemia cells, TNF dual-luciferase reporter clone, PMA-differentiated to macrophage-like cells. Reagents: siRNA pool against human genes, 50 nM. Duration: LPS for 4 h, given about 3 days after siRNA transfection. Conditions: bacterial LPS (TLR4 ligand), 10 ng/ml. Measured: 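TNF firefly reporter luminescence divided by renilla, normalised to the plate median, then turned into a robust z-score for each replicate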. Direction: TNF reporter robust z-score: higher = stronger TNF reporter response to LPS. Call rule: 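a well is active when its z-score exceeds 2.8 or falls below -1.5; control wells carry no call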.
The deposit covers about 18,000 reagents; shown is an unselected part. In the full data, about 2,900 (16%) are marked active. 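Calls are made per well; low scores hint the gene aids the LPS response, high scores that it dampens it.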 A number with no mark means an inactive call. Repeated entries: four replicate wells of each siRNA pool.

| TNF reporter robust z-score | Gene |
| --- | --- |
| -0.85 | ARSL (arylsulfatase L) |
| 0.2 | ARSL (arylsulfatase L) |
| -0.63 | ARSL (arylsulfatase L) |
| 0.81 | ARSL (arylsulfatase L) |
| -1.06 | BLM (BLM RecQ like helicase) |
| -1.17 | BLM (BLM RecQ like helicase) |
| -0.19 | BLM (BLM RecQ like helicase) |
| 0.79 | BLM (BLM RecQ like helicase) |
| -0.12 | YES1 (YES proto-oncogene 1, Src family tyrosine kinase) |
| 0.65 | YES1 (YES proto-oncogene 1, Src family tyrosine kinase) |
| 0.14 | YES1 (YES proto-oncogene 1, Src family tyrosine kinase) |
| 0.71 | YES1 (YES proto-oncogene 1, Src family tyrosine kinase) |
| -1.03 | SMAD4 (SMAD family member 4) |
| -1.44 | SMAD4 (SMAD family member 4) |
| -1.53 (active) | SMAD4 (SMAD family member 4) |
| -0.7 | SMAD4 (SMAD family member 4) |
| -0.49 | OR2T6 (olfactory receptor family 2 subfamily T member 6) |
| 0.25 | OR2T6 (olfactory receptor family 2 subfamily T member 6) |
| 0.07 | OR2T6 (olfactory receptor family 2 subfamily T member 6) |
| -0.08 | OR2T6 (olfactory receptor family 2 subfamily T member 6) |
| 0.61 | NDUFB4 (NADH:ubiquinone oxidoreductase subunit B4) |
| -0.93 | NDUFB4 (NADH:ubiquinone oxidoreductase subunit B4) |
| -0.92 | NDUFB4 (NADH:ubiquinone oxidoreductase subunit B4) |
| 0 | NDUFB4 (NADH:ubiquinone oxidoreductase subunit B4) |
| 1.92 | INPPL1 (inositol polyphosphate phosphatase like 1) |
| 0.94 | INPPL1 (inositol polyphosphate phosphatase like 1) |
| 1.15 | INPPL1 (inositol polyphosphate phosphatase like 1) |
| 2.05 | INPPL1 (inositol polyphosphate phosphatase like 1) |
| -1.2 | MYL11 (myosin light chain 11) |
| -0.22 | MYL11 (myosin light chain 11) |
| -0.91 | MYL11 (myosin light chain 11) |
| -0.67 | MYL11 (myosin light chain 11) |
| -0.53 | ASIP (agouti signaling protein) |
| -1.46 | ASIP (agouti signaling protein) |
| -0.77 | ASIP (agouti signaling protein) |
| -0.52 | ASIP (agouti signaling protein) |
| -0.29 | XBP1 (X-box binding protein 1) |
| -0.69 | XBP1 (X-box binding protein 1) |
| -0.33 | XBP1 (X-box binding protein 1) |
| -0.85 | XBP1 (X-box binding protein 1) |
| -1.68 (active) | PCK1 (phosphoenolpyruvate carboxykinase 1) |
| 0.92 | PCK1 (phosphoenolpyruvate carboxykinase 1) |
| 0.55 | PCK1 (phosphoenolpyruvate carboxykinase 1) |
| 2.02 | PCK1 (phosphoenolpyruvate carboxykinase 1) |
| 0.52 | HS3ST4 (heparan sulfate-glucosamine 3-sulfotransferase 4) |
| -1.36 | HS3ST4 (heparan sulfate-glucosamine 3-sulfotransferase 4) |
| -0.41 | HS3ST4 (heparan sulfate-glucosamine 3-sulfotransferase 4) |
| -1.08 | HS3ST4 (heparan sulfate-glucosamine 3-sulfotransferase 4) |
| -0.55 | ANKK1 (ankyrin repeat and kinase domain containing 1) |
| 0.25 | ANKK1 (ankyrin repeat and kinase domain containing 1) |
| 0.55 | ANKK1 (ankyrin repeat and kinase domain containing 1) |
| 1.39 | ANKK1 (ankyrin repeat and kinase domain containing 1) |
| -1.66 (active) | DHRS7 (dehydrogenase/reductase 7) |
| -1.16 | DHRS7 (dehydrogenase/reductase 7) |
| -1.17 | DHRS7 (dehydrogenase/reductase 7) |
| -1.06 | DHRS7 (dehydrogenase/reductase 7) |
| 1.08 | MAGI3 |
| 0.57 | MAGI3 |
| 1.41 | MAGI3 |
| 0.07 | GGPS1 (geranylgeranyl diphosphate synthase 1) |
| 1.38 | GGPS1 (geranylgeranyl diphosphate synthase 1) |
| 0.21 | GGPS1 (geranylgeranyl diphosphate synthase 1) |
| 0.2 | GGPS1 (geranylgeranyl diphosphate synthase 1) |
| -2.25 (active) | BRME1 (break repair meiotic recombinase recruitment factor 1) |
| -1.21 | BRME1 (break repair meiotic recombinase recruitment factor 1) |
| -1.08 | BRME1 (break repair meiotic recombinase recruitment factor 1) |
| -0.4 | BRME1 (break repair meiotic recombinase recruitment factor 1) |
| 2.03 | CHAF1A (chromatin assembly factor 1 subunit A) |
| 1.21 | CHAF1A (chromatin assembly factor 1 subunit A) |
| 0.4 | CHAF1A (chromatin assembly factor 1 subunit A) |
| 1.13 | CHAF1A (chromatin assembly factor 1 subunit A) |
| 0.3 | CBY2 (chibby family member 2) |
| 1.44 | CBY2 (chibby family member 2) |
| 0.9 | CBY2 (chibby family member 2) |
| 0.53 | CBY2 (chibby family member 2) |
